Measurements from patent US20220364990A1, “ANALYSIS OF OSCILLATORY FLUORESCENCE FROM BIOLOGICAL CELLS” (MOLECULAR DEVICES, LLC, priority 2019, published 2022).

Tested on: human iPSC-derived cardiomyocytes
Assay: Calcium oscillation assay in iPSC-derived cardiomyocytes (FLIPR Penta, EarlyTox Cardiotoxicity Kit, Peak Pro 2 analysis)
Type: cell-based
Conditions: 1 μM
Protocol: Development of biologically relevant and predictive cell-based assays for compound screening and toxicity assessment is a major challenge in drug discovery. The focus of this study was to establish high-throughput-compatible cardiotoxicity assays using human-induced pluripotent stem cell (iPSC)-derived cardiomyocytes. To assess the utility of human iPSC-derived cardiomyocytes as an in vitro pro-arrhythmia model, the concentration dependence and responses were evaluated for 28 drugs linked to low, intermediate, and high torsades de pointes (TdP) risk categories. […] This assay allows for the characterization of parameters such as beating frequency, amplitude, peak width, and rise and decay times. […] The iPSC-derived cardiomyocytes generate spontaneous synchronized calcium oscillations. High speed fluorescence imaging with the FLIPR® Penta® System was used to measure the patterns and frequencies of the Ca^2+ oscillations in cardiomyocytes as monitored by changes in intracellular Ca^2+ levels with the EarlyToxTM Cardiotoxicity Kit. […] In addition, assay-ready 384-Well plates with cardiomyocytes1 were obtained from […], Inc. Plates were shipped pre-plated and allowed to recover after arrival for 2 days. […]

Structure (SMILES): COC(=O)C1=C(C)NC(C)=C(C(=O)OC)C1c1ccccc1[N+](=O)[O-] [nifedipine]
- frequency of primary peaks relative to control (after thirty minutes treatment, control DMSO): significantly higher frequency than control
- peaks detected in calcium oscillation trace (primary / secondary peaks) (recorded two minutes after thirty minutes treatment): Only primary peaks 118 are detected
